{"source": "paper PMC8213057", "about": "“Targeting ALK2: An Open Science Approach to Developing Therapeutics for the Treatment of Diffuse Intrinsic Pontine Glioma” (Journal of Medicinal Chemistry, 2020)", "key": {"[1]": {"target": "MNK1 (Homo sapiens, UniProt Q9BUB5)", "assay": "biochemical", "conditions": "read-out: % enzyme activity, 1 μM; Run 1, Run 2"}, "[2]": {"target": "T1, LKB1 (Homo sapiens, UniProt Q15831)", "conditions": "1 μM; Run 1, Run 2"}, "[3]": {"target": "LIMK1 (Homo sapiens, UniProt P53667)", "conditions": "1 μM; Run 1, Run 2"}, "[4]": {"target": "ULK1 (Homo sapiens, UniProt O75385)", "assay": "biochemical", "conditions": "read-out: % enzyme activity, 1 μM; Run 1, Run 2"}, "[5]": {"target": "MLK1/MAP3K9 (Homo sapiens, UniProt P80192)", "assay": "biochemical", "conditions": "read-out: % enzyme activity, 1 μM; Run 1, Run 2"}, "[6]": {"target": "CDK1/cyclin B (Homo sapiens, UniProt P06493)", "conditions": "1 μM; Run 1, Run 2"}, "[7]": {"target": "KSR1 (Homo sapiens, UniProt Q8IVT5)", "assay": "biochemical", "conditions": "read-out: % enzyme activity, 1 μM; Run 1, Run 2"}, "[8]": {"target": "SRPK2 (Homo sapiens, UniProt P78362)", "assay": "biochemical", "conditions": "read-out: % enzyme activity, 1 μM; Run 1, Run 2"}, "[9]": {"target": "HCK (Homo sapiens, UniProt P08631)", "assay": "biochemical", "conditions": "read-out: % enzyme activity, 1 μM; Run 1, Run 2"}, "[10]": {"target": "STK39/STLK3 (Homo sapiens, UniProt Q9UEW8)", "assay": "biochemical", "conditions": "read-out: % enzyme activity, 1 μM; Run 1, Run 2"}, "[11]": {"target": "ZAP70 (Homo sapiens, UniProt P43403)", "conditions": "1 μM; Run 1, Run 2"}, "[12]": {"target": "Aurora C (Homo sapiens, UniProt Q9UQB9)", "assay": "biochemical", "conditions": "read-out: % enzyme activity, 1 μM; Run 1, Run 2"}, "[13]": {"target": "IRAK1 (Homo sapiens, UniProt P51617)", "assay": "biochemical", "conditions": "read-out: % enzyme activity, 1 μM; Run 1, Run 2"}, "[14]": {"target": "RET (Homo sapiens, UniProt P07949)", "assay": "biochemical", "conditions": "read-out: % enzyme activity, 1 μM; Run 1, Run 2"}, "[15]": {"target": "MAK (Homo sapiens, UniProt P20794)", "assay": "biochemical", "conditions": "read-out: % enzyme activity, 1 μM; Run 1, Run 2"}, "[16]": {"target": "EPHA3 (Homo sapiens, UniProt P29320)", "conditions": "1 μM; Run 1, Run 2"}, "[17]": {"target": "RSK2 (Homo sapiens, UniProt P51812)", "assay": "biochemical", "conditions": "read-out: % enzyme activity, 1 μM; Run 1, Run 2"}, "[18]": {"target": "MEKK2 (Homo sapiens, UniProt Q9Y2U5)", "conditions": "1 μM; Run 1, Run 2"}, "[19]": {"target": "IRAK4 (Homo sapiens, UniProt Q9NWZ3)", "conditions": "1 μM; Run 1, Run 2"}, "[20]": {"target": "TYK1/LTK (Homo sapiens, UniProt P29376)", "assay": "biochemical", "conditions": "read-out: % enzyme activity, 1 μM; Run 1, Run 2"}, "[21]": {"target": "SRPK1 (Homo sapiens, UniProt Q96SB4)", "conditions": "1 μM; Run 1, Run 2"}, "[22]": {"target": "NEK7 (Homo sapiens, UniProt Q8TDX7)", "conditions": "1 μM; Run 1, Run 2"}, "[23]": {"target": "CDK6/cyclin D3 (Homo sapiens, UniProt Q00534)", "conditions": "1 μM; Run 1, Run 2"}, "[24]": {"target": "c-MET (Homo sapiens, UniProt P08581)", "assay": "biochemical", "conditions": "read-out: % enzyme activity, 1 μM; Run 1, Run 2"}, "[25]": {"target": "LYN B (Homo sapiens, UniProt P07948)", "assay": "biochemical", "conditions": "read-out: % enzyme activity, 1 μM; Run 1, Run 2"}, "[26]": {"target": "AKT1 (Homo sapiens, UniProt P31749)", "assay": "biochemical", "conditions": "read-out: % enzyme activity, 1 μM; Run 1, Run 2"}, "[27]": {"target": "MAPKAPK5/PRAK (Homo sapiens, UniProt Q8IW41)", "assay": "biochemical", "conditions": "read-out: % enzyme activity, 1 μM; Run 1, Run 2"}, "[28]": {"target": "CDK6/cyclin D1 (Homo sapiens, UniProt Q00534)", "assay": "biochemical", "conditions": "read-out: % enzyme activity, 1 μM; Run 1, Run 2"}, "[29]": {"target": "CAMK2b (Homo sapiens, UniProt Q13554)", "assay": "biochemical", "conditions": "read-out: % enzyme activity, 1 μM; Run 1, Run 2"}, "[30]": {"target": "PAK1 (Homo sapiens, UniProt Q13153)", "conditions": "1 μM; Run 1, Run 2"}, "[31]": {"target": "TSSK2 (Homo sapiens, UniProt Q96PF2)", "assay": "biochemical", "conditions": "read-out: % enzyme activity, 1 μM; Run 1, Run 2"}, "[32]": {"target": "JNK1 (Homo sapiens, UniProt P45983)", "conditions": "1 μM; Run 1, Run 2"}, "[33]": {"target": "PKD2/PRKD2 (Homo sapiens, UniProt Q9BZL6)", "conditions": "1 μM; Run 1, Run 2"}, "[34]": {"target": "CHK2 (Homo sapiens, UniProt O96017)", "assay": "biochemical", "conditions": "read-out: % enzyme activity, 1 μM; Run 1, Run 2"}, "[35]": {"target": "BRK (Homo sapiens, UniProt Q13882)", "assay": "biochemical", "conditions": "read-out: % enzyme activity, 1 μM; Run 1, Run 2"}, "[36]": {"target": "CDK5/p35 (Homo sapiens, UniProt Q00535)", "assay": "biochemical", "conditions": "read-out: % enzyme activity, 1 μM; Run 1, Run 2"}, "[37]": {"target": "MAPKAPK3 (Homo sapiens, UniProt Q16644)", "conditions": "1 μM; Run 1, Run 2"}, "[38]": {"target": "T1, LKB1", "assay": "biochemical", "conditions": "read-out: % enzyme activity, 1 μM; Run 1, Run 2"}, "[39]": {"target": "PIM1 (Homo sapiens, UniProt P11309)", "assay": "biochemical", "conditions": "read-out: % enzyme activity, 1 μM; Run 1, Run 2"}, "[40]": {"target": "YES/YES1 (Homo sapiens, UniProt P07947)", "conditions": "1 μM; Run 1, Run 2"}, "[41]": {"target": "DDR2 (Homo sapiens, UniProt Q16832)", "assay": "biochemical", "conditions": "read-out: % enzyme activity, 1 μM; Run 1, Run 2"}, "[42]": {"target": "STK32B/YANK2 (Homo sapiens, UniProt Q9NY57)", "assay": "biochemical", "conditions": "read-out: % enzyme activity, 1 μM; Run 1, Run 2"}, "[43]": {"target": "HIPK3 (Homo sapiens, UniProt Q9H422)", "assay": "biochemical", "conditions": "read-out: % enzyme activity, 1 μM; Run 1, Run 2"}}}
{"smiles": "COc1cc(-c2cncc(-c3ccc(N4CCN(C(C)C)CC4)cc3)c2C)cc(F)c1C(N)=O", "note": "[Compound 26b, 2-Fluoro-4-(5-(4-(4-isopropylpiperazin-1-yl)phenyl)-4-methylpyridin-3-yl)-6-methoxybenzamide]", "values": [{"measurement": "remaining activity at 1 µM", "setting": "[1]", "value": 61, "unit": "%"}, {"measurement": "% enzyme activity", "setting": "[2]", "value": 92.06, "unit": "%"}, {"measurement": "% enzyme activity", "setting": "[3]", "value": 76.31, "unit": "%"}, {"measurement": "remaining activity at 1 µM", "setting": "[4]", "value": 86.3, "unit": "%"}, {"measurement": "remaining activity at 1 µM", "setting": "[5]", "value": 104, "unit": "%"}, {"measurement": "% enzyme activity", "setting": "[6]", "value": 89.90, "unit": "%"}, {"measurement": "remaining activity at 1 µM", "setting": "[7]", "value": 93.6, "unit": "%"}, {"measurement": "remaining activity at 1 µM", "setting": "[8]", "value": 97.2, "unit": "%"}, {"measurement": "remaining activity at 1 µM", "setting": "[9]", "value": 95.1, "unit": "%"}, {"measurement": "remaining activity at 1 µM", "setting": "[10]", "value": 97.6, "unit": "%"}, {"measurement": "% enzyme activity", "setting": "[11]", "value": 98.79, "unit": "%"}, {"measurement": "remaining activity at 1 µM", "setting": "[12]", "value": 101, "unit": "%"}, {"measurement": "remaining activity at 1 µM", "setting": "[13]", "value": 101, "unit": "%"}, {"measurement": "remaining activity at 1 µM", "setting": "[14]", "value": 92.5, "unit": "%"}, {"measurement": "remaining activity at 1 µM", "setting": "[15]", "value": 112, "unit": "%"}, {"measurement": "% enzyme activity", "setting": "[16]", "value": 100.47, "unit": "%"}, {"measurement": "remaining activity at 1 µM", "setting": "[17]", "value": 97.4, "unit": "%"}, {"measurement": "% enzyme activity", "setting": "[18]", "value": 82.92, "unit": "%"}, {"measurement": "% enzyme activity", "setting": "[19]", "value": 88.83, "unit": "%"}, {"measurement": "remaining activity at 1 µM", "setting": "[20]", "value": 99.9, "unit": "%"}, {"measurement": "% enzyme activity", "setting": "[21]", "value": 102.86, "unit": "%"}, {"measurement": "% enzyme activity", "setting": "[22]", "value": 93.87, "unit": "%"}, {"measurement": "% enzyme activity", "setting": "[23]", "value": 88.85, "unit": "%"}, {"measurement": "remaining activity at 1 µM", "setting": "[24]", "value": 98.4, "unit": "%"}, {"measurement": "remaining activity at 1 µM", "setting": "[25]", "value": 95.1, "unit": "%"}, {"measurement": "remaining activity at 1 µM", "setting": "[26]", "value": 102, "unit": "%"}, {"measurement": "remaining activity at 1 µM", "setting": "[27]", "value": 96.1, "unit": "%"}, {"measurement": "remaining activity at 1 µM", "setting": "[28]", "value": 101, "unit": "%"}, {"measurement": "remaining activity at 1 µM", "setting": "[29]", "value": 89, "unit": "%"}, {"measurement": "% enzyme activity", "setting": "[30]", "value": 103.63, "unit": "%"}, {"measurement": "remaining activity at 1 µM", "setting": "[31]", "value": 107, "unit": "%"}, {"measurement": "% enzyme activity", "setting": "[32]", "value": 83.52, "unit": "%"}, {"measurement": "% enzyme activity", "setting": "[33]", "value": 102.86, "unit": "%"}, {"measurement": "remaining activity at 1 µM", "setting": "[34]", "value": 95.4, "unit": "%"}, {"measurement": "remaining activity at 1 µM", "setting": "[35]", "value": 65.3, "unit": "%"}, {"measurement": "remaining activity at 1 µM", "setting": "[36]", "value": 95.6, "unit": "%"}, {"measurement": "% enzyme activity", "setting": "[37]", "value": 97.50, "unit": "%"}, {"measurement": "remaining activity at 1 µM", "setting": "[38]", "value": 92.5, "unit": "%"}, {"measurement": "remaining activity at 1 µM", "setting": "[39]", "value": 106, "unit": "%"}, {"measurement": "% enzyme activity", "setting": "[40]", "value": 98.27, "unit": "%"}, {"measurement": "remaining activity at 1 µM", "setting": "[41]", "value": 92.6, "unit": "%"}, {"measurement": "remaining activity at 1 µM", "setting": "[42]", "value": 86.5, "unit": "%"}, {"measurement": "remaining activity at 1 µM", "setting": "[43]", "value": 87.9, "unit": "%"}]}
